PubChem BioAssay AID1259425 | University of Nebraska Medical Center, 2018
Aim: 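Seek colon cancer weak points whose silencing resembles KSR1 loss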 (primary screen). System: HCT116 human colon cancer cells. Reagents: siRNA pool against human genes, 50 nM siRNA. Measured: 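mRNA of six signature genes measured together by branched-DNA assay after 50 nM siRNA pool, blank removed, divided by geometric mean of two housekeeping genes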. Scale: BNIP3L mRNA: higher = more BNIP3L transcript after knockdown.
The deposit covers about 14,000 reagents; shown is an unselected part. Further read-outs or replicates are left out here. Not given: the time to read-out.

gene knocked down	BNIP3L mRNA, set 1
MRPL46	0.14
TENT4B	0.108
BTBD2	0.0385
PPP1R26	0.0118
COL19A1	0.12
ZNF354C	0.178
MTCH2	0.234
FAM135B	0.093
EIF5A	0.0908
FUT2	0.0607
NFE2L3	0.141
GTF2IRD2	0.122
CACYBP	0.101
TNFRSF9	0.0826
EPHA3	0.183
SEC14L3	0.0309
CACTIN	0.0815
RAI14	0.236
PPP4R4	0.139
TMC5	0.117

In a second layout: entries from further up.
| gene knocked down | BNIP3L mRNA, set 1 |
| --- | --- |
| TENT4B | 0.108 |
| BTBD2 | 0.0385 |
